PubChem BioAssay AID686938 – Drosophila RNAi Screening Center | 2013
The screen tested about 23,000 reagents; this is an unselected part of those with a known target gene and a result. Over the whole deposit, 75 (0.33%) got an active call. 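Raw plate signals without normalisation; calls rest on plate z-scores that were not deposited; ratio present for only 364 wells.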 Names joined by + are all predicted targets of the reagent. The record does not give: the dose of the treatment.

Assay: 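Knock-downs reducing store-operated calcium influx in Drosophila cells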 (primary screen)
System: Drosophila S2R+ cells
Reagents: long dsRNA against Drosophila genes, about 0.25 µg dsRNA per well, roughly 10,000 cells
Time to read-out: 5 days of knock-down before the calcium assay
Treatment: thapsigargin (SERCA pump blocker) to empty calcium stores; entry signal taken 4 min after adding it
Measurement: 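Duplicate raw fluo-4 intensities per well from a plate reader, at rest and four minutes after thapsigargin emptied calcium stores; entry-to-rest ratio filled for only some wells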
Direction: calcium entry signal: higher = stronger calcium signal after store depletion; entry to resting ratio: higher = more calcium entry relative to resting level; resting calcium signal: higher = higher resting calcium signal
Rule for the call: 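Hit if the duplicate-averaged plate z-score for entry over resting signal is under −3; wells with weak total dye signal (Fmax z < −2) or more than 5 off-targets removed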
Calls: active = strongly reduced calcium entry; inactive = no strong reduction

no.	gene	amplicon	calcium entry signal, replicate 1 (fluorescence units)	calcium entry signal, replicate 2 (fluorescence units)	entry to resting ratio	resting calcium signal, replicate 1 (fluorescence units)	resting calcium signal, replicate 2 (fluorescence units)	Outcome
1	sp3	DRSC16354	4.24e7	3.87e7		5.38e7	1.80e7	inactive
2	Or94b	DRSC16773	5.36e7	5.61e7		2.69e7	2.27e7	inactive
3	Srg3	DRSC08984	4.07e7	3.74e7		2.20e7	1.69e7	inactive
4	Srg3	DRSC10178	2.79e7	3.70e7		1.37e7	1.51e7	inactive
5	CG3251	DRSC00586	2.37e7	2.51e7		1.21e7	1.15e7	inactive
6	CG13606	DRSC14609	4.51e7	4.50e7		2.28e7	1.91e7	inactive
7	Rab7	DRSC16810	2.14e7	2.41e7		1.25e7	1.32e7	inactive
8	dbe	DRSC00811	3.03e7			1.97e7		inactive
9	Fer3	DRSC16133	2.83e7	3.17e7		1.34e7	1.48e7	inactive
10	eEFSec	DRSC04571	4.71e7	5.11e7		2.38e7	2.20e7	inactive
11	MED8	DRSC06426	4.67e7	4.05e7		1.90e7	1.98e7	inactive
12	CG3386	DRSC08566	3.48e7	4.15e7		1.76e7	1.81e7	inactive
13	pho	DRSC17219	2.77e7	5.00e7	2.3	1.22e7	1.92e7	inactive
14	par-6	DRSC20359	3.38e7	3.37e7		1.58e7	1.55e7	inactive
15	CG12420	DRSC14514	3.21e7	4.42e7		1.59e7	1.99e7	inactive
16	Tfb1	DRSC07082	2.59e7	4.34e7		1.26e7	1.93e7	inactive
17	CG4554	DRSC04473	2.09e7	3.41e7		1.26e7	1.72e7	inactive
18	CG18853	DRSC06795	2.20e7	2.47e7		1.04e7	1.15e7	inactive
19	Gss1 + Gss2	DRSC20008	2.83e7	3.31e7		1.52e7	1.51e7	inactive
20	Gss1 + Gss2	DRSC21539	3.40e7	3.66e7		1.99e7	1.73e7	inactive
21	CG13806	DRSC08341	2.78e7	4.77e7		1.55e7	2.12e7	inactive
22	Septin1	DRSC20573	4.75e7	3.86e7		2.40e7	1.86e7	inactive
23	CG11837	DRSC14397	2.05e7	2.27e7		1.05e7	1.22e7	inactive
24	Act79B	DRSC11604	2.14e7	1.18e7		1.15e7	8.58e6	inactive
25	CG13708	DRSC08317	2.86e7	4.49e7		1.44e7	1.93e7	inactive
26	TwdlM	DRSC15810	1.86e7	3.46e7		1.24e7	1.45e7	inactive
27	Ir67b	DRSC09876	1.54e7	2.07e7		8.76e6	9.84e6	inactive
28	CG18605	DRSC06772	4.71e7	3.64e7		2.06e7	1.81e7	inactive
29	CG2865	DRSC18527	3.26e7	4.03e7		1.50e7	1.87e7	inactive
30	CG2865	DRSC18528	6.81e7	2.73e7		3.56e7	1.46e7	inactive
31	Mnat9	DRSC14325	3.84e7	4.27e7	2.1	1.82e7	1.96e7	inactive
32	CG12104	DRSC08254	3.02e7	3.03e7		1.44e7	1.61e7	inactive
33	GramD1B	DRSC00426	2.57e7	2.94e7		1.34e7	1.41e7	inactive
34	GramD1B	DRSC00591	4.68e7			2.44e7		inactive
35	SecCl	DRSC10887	3.78e7	5.23e7		1.77e7	2.33e7	inactive
36	Muc18B	DRSC20064	5.45e7	5.55e7		2.54e7	2.42e7	inactive
37	Muc18B	DRSC21644	3.71e7	3.73e7		1.91e7	1.75e7	inactive
38	CG13639	DRSC14638	3.46e7	2.77e7		1.63e7	1.33e7	inactive
39	Wnt6	DRSC02795	3.63e7	2.67e7		1.68e7	1.22e7	inactive
40	c(2)M	DRSC01922	5.67e7			2.63e7		inactive
41	CG33263	DRSC10108	3.45e7	3.86e7		1.83e7	1.64e7	inactive
42	LS2	DRSC04340	1.85e7	2.71e7		1.05e7	1.26e7	inactive
43	CG7484	DRSC10853	3.92e7	5.28e7		1.91e7	2.18e7	inactive
44	CG7457	DRSC10849	3.29e7	4.18e7		1.58e7	1.79e7	inactive
45	SIDL	DRSC16077	3.51e7	4.89e7		1.54e7	2.13e7	inactive
46	Dscam3	DRSC14525	4.53e7	5.09e7		2.15e7	8.19e7	inactive
47	Dscam3	DRSC16376	4.04e7	4.52e7		1.91e7	7.30e7	inactive
48	CR17438	DRSC18125	3.93e7	5.00e7		1.83e7	2.42e7	inactive
49	Hmbs	DRSC08632	3.20e7	2.52e7		1.36e7	1.30e7	inactive
50	CG32196	DRSC09548	3.30e7	4.28e7		1.52e7	2.06e7	inactive
51	CG4259	DRSC00645	2.63e7	3.21e7		1.33e7	1.43e7	inactive
52	CG31460	DRSC14370	2.37e7	3.17e7		1.10e7	1.41e7	inactive
53	SCAR	DRSC03426	2.99e7	4.13e7		1.60e7	1.68e7	inactive
54	CG4592	DRSC02761	4.75e7			2.21e7		inactive
55	Pitslre	DRSC11874	2.83e7	2.84e7		2.34e7	1.52e7	inactive
56	Pitslre	DRSC23346	2.76e7	2.63e7		1.65e7	1.52e7	inactive
57	Cog8	DRSC02961	5.14e7			2.39e7		inactive
58	Spn88Eb	DRSC16093	3.68e7	5.02e7		1.68e7	2.19e7	inactive
